Experimental data reported in article PMC9821614.
These are yes or no findings as the source states them, for the method shown. A result given as binding can be weak or reduced; the word gives no strength.

By UniProt entry, the sequences of proteins in these tests, tags left out. Where a name states a change or a piece, a line headed by the entry shows the natural chain unless it says otherwise.
UniProt I1M0U7: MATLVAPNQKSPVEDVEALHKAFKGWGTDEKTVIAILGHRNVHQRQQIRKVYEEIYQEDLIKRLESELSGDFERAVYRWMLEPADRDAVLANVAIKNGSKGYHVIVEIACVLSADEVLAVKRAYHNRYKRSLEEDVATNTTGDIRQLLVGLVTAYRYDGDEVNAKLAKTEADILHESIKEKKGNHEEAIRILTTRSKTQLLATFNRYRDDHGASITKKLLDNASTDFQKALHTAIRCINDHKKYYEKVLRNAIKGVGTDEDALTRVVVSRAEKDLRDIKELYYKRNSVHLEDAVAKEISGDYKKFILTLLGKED
UniProt A0A0R0ICR4: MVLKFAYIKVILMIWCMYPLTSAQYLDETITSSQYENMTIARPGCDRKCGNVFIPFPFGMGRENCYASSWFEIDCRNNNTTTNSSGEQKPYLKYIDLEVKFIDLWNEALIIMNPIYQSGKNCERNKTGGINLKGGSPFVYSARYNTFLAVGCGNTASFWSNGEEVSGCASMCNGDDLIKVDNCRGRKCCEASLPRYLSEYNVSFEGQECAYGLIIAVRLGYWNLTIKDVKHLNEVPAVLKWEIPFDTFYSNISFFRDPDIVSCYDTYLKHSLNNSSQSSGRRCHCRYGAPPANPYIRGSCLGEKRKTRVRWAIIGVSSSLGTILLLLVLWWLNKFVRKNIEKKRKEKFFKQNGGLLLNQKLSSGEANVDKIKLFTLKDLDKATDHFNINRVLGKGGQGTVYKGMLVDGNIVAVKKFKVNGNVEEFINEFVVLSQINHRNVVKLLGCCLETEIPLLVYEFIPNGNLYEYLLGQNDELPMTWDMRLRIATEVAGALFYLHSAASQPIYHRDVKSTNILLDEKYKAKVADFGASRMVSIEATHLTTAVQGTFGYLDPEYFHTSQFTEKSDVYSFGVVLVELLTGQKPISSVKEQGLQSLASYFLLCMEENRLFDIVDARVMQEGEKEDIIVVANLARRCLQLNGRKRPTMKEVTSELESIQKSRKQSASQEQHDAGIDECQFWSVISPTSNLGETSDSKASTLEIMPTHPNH

Target: GmANNRJ4-GST recombinant protein (Glycine max (soybean)) (UniProt I1M0U7)
Test: pull-down; GST or GmANNRJ4-GST on GST resin in GST binding buffer, 1 h at 4 °C, then GmWAK1-His added for 6 h at 4 °C; five washes; immunoblot with anti-His and anti-GST; both purified

GmWAK1-His recombinant protein (from UniProt A0A0R0ICR4)
binding: binds
